# Measured values taken from US11066445B2, “Immunomodulators acting as antagonists of PD-1” (Bristol-Myers Squibb Company, priority 2017, dated 2021).
# Chains of the proteins cited; added tags and fusions are not shown. A line that says so, or that is headed by a name, gives the form on record, which may keep a tag or linker.
# UniProt Q9NZQ7, with tags, fused parts or gaps: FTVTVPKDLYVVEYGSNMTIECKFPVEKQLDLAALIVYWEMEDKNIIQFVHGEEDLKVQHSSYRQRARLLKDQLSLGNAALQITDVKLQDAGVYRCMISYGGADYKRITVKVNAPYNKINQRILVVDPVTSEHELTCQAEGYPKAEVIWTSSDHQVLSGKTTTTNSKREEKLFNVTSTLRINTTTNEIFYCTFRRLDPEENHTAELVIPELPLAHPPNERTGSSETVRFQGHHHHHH
# For at least one compound, name, drawing or mass did not settle the structure. Starred links: 1 amine or outer side, 2 acyl side, 3 side chain; linkers in the order of their positions; H or OH if unused. Positions of bridges follow the written chain, without caps; N, C: chain ends. Non-standard residues stand in square brackets, D forms with d. Residues, ends and D or L forms follow the SMILES beside them. *: point of attachment. X3 = O=C(O)CCCCCCCCCCCCCCCCC(=O)N[C@@H](CCC(=O)NCCCOCCOCCOCCCN*)C(=O)O; X5 = O=C(O)Cc1nn(C[C@H](N[*:1])C(=O)[*:2])c2ccccc12; Hyp = O=C(O)[C@@H]1C[C@@H](O)CN1; NMeNle = CCCC[C@H](NC)C(=O)O; NMeA = CN[C@@H](C)C(=O)O; Dab = NCC[C@H](N)C(=O)O; Dap = NC[C@H](N)C(=O)O
# Target: T1, PD-1-Ig binding to PD-L1-TVMV-His (PD-L1-His) (Homo sapiens, UniProt Q9NZQ7)
# T1 construct: hPDL1(19-239)-TVMV-His; TVMV protease cleavage site (C); made in house; host or cells: HEK293T cells
# Assay: PD-1/PD-L1 Homogenous Time-Resolved Fluorescence (HTRF) binding assay
# Conditions: PD-1-Ig (20 nM) / PD-L1-His (10 nM); numeric values; read-out: LE HTRF hPD1 hPDL1 IC50
# Excerpt: Methods for Testing the Ability of Macrocyclic Peptides to Compete for the Binding of Pd-1 to Pd-L1 Using Homogenous Time-Resolved Fluorescence (HTRF) Binding Assays
# The ability of the macrocyclic peptides of the present disclosure to bind to PD-L1 was investigated using a PD-1/PD-L1 Homogenous Time-Resolved Fluorescence (HTRF) binding assay.
# Homogenous Time-Resolved Fluorescence (HTRF) Assays of Binding of Soluble PD-1 to Soluble PD-L1. Soluble PD-1 and soluble PD-L1 refers to proteins with carboxyl-end truncations that remove the transmembrane-spanning regions and are fused to heterologous sequences, specifically the Fc portion of the human immunoglobuling G sequence (Ig) or the hexahistidine epitope tag (His). All binding studies were performed in an HTRF assay buffer consisting of dPBS supplemented with 0.1% (w/v) bovine serum albumin and 0.05% (v/v) Tween-20. For the PD-1-Ig/PD-L1-His binding assay, inhibitors were pre-incubated with PD-L1-His (10 nM final) for 15 m in 4 μl of assay buffer, followed by addition of PD-1-Ig (20 nM final) in 1 μl of assay buffer and further incubation for 15 m. PD-L1 fusion proteins from either human, cynomologous macaques, mouse, or other species were used. HTRF detection was achieved using europium crypate-labeled anti-Ig monoclonal antibody (1 nM final) and allophycocyanin (APC) labeled anti-His monoclonal antibody (20 nM final). […]
smiles,measurement,value
CCCC[C@H]1C(=O)N(C)[C@@H](CCCC)C(=O)N[C@@H](CC(C)C)C(=O)N[C@H](C(=O)NCC(=O)N[C@@H](CC(=O)NCCCOCCOCCOCCCNC(=O)CC[C@H](NC(=O)CCCCCCCCCCCCCCCCC(=O)O)C(=O)O)C(=O)O)CSCC(=O)N[C@@H](Cc2ccc(O)cc2)C(=O)N(C)[C@@H](C)C(=O)N[C@@H](CC(N)=O)C(=O)N2CCC[C@H]2C(=O)N[C@@H](CN)C(=O)N[C@@H](CC(C)C)C(=O)N2C[C@H](O)C[C@H]2C(=O)N[C@@H](Cc2c[nH]c3ccccc23)C(=O)N[C@@H](CCN)C(=O)N[C@@H](Cn2nc(CC(=O)O)c3ccccc32)C(=O)N1C [Example 11] ({CH2CO}-Y[NMeA]NP[Dap]L[Hyp]W[Dab][X5][NMeNle][NMeNle]LCGD(X3)-OH; thioether N-14),IC50,13 nM
